The data set deals with CREI-96 (truncated Carbon catabolite repressor 1, Cre1-96) (Trichoderma reesei Rut-C30) (UniProt G0RB08). The experiment in a line: EMSA. Conditions: 500, 1000, 2000 nM protein, 4 ng probe, two shifted bands; GST elution buffer, 10 min at 22 °C; non-denaturing PAGE; salt and pH not stated; recombinant …; residues 1-96; protein details: GST fusion (37 kDa), thrombin-cleaved before use; label: 6-FAM on both primers (RG89, RG90); probe letters rebuilt from the primers and the genome.

The chains behind the UniProt entries cited, without tags or fusion partners.
UniProt G0RB08, entry or part of it: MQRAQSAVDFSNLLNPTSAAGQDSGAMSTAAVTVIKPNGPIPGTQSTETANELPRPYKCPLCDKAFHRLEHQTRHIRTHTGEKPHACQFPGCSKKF

In the case of “GTAGAGGCATGTTGTGAATCTGTGTCGGGCAGGACACGCCTCGAAGGTTCACGGCAAGGGAAACCACCGATAGCAGTGTCTAGTAGCAACCTGTAAAGCCGCAATGCAGCATCACTGGAAAATACAAACCAATGGCTAAAAGTACATAAGTTAATGCCTAAAGAAGTCATATACCAGCGGCTAATAATTGTACAATCAAGTGGCTAAACGTACCGTAATTTGCCAACGGCTTGTGGGGTTGCAGAAGCAACGGCAAAGCCCCACTTCCCCACGTTTGTTTCTTCACTCAGTCCAATCTCAGCTGGTGATCCCCCAATTGGGTCGCTTGTTTGTTCCGGTGAAGTGAAAGAAGACAGAGGTAAGAATGTCTGACTCGGAGCGTTTTGCATACAACC (double strand) [cbh1 URR probe (400 bp PCR product)]”, the binding result was “binds”.

These data come from PMC4173072.
